# Source: the supplement of paper PMC3741180, “A Novel High Throughput Biochemical Assay to Evaluate the HuR Protein-RNA Complex Formation” (PLoS ONE, 2013)
# Protein sequences, listed by entry. Tags and fused reporters are not part of them.
# UniProt Q15717, whole entry: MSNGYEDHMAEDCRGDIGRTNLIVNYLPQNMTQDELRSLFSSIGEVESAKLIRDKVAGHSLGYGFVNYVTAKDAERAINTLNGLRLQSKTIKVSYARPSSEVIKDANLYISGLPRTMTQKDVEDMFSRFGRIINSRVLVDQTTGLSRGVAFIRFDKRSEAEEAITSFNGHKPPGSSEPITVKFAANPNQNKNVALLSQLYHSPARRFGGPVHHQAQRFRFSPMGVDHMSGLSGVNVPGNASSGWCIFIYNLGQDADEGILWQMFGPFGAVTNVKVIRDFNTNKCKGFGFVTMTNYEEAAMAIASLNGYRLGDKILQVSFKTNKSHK
# Some of the results follow. Single values are uncertain here, since repeats match poorly.
# Target: HuR (ELAVL1) - TNFalpha ARE RNA complex (UniProt Q15717)
# Test: AlphaScreen HuR-RNA complex signal Z-score relative to positive (Bi-TNF, DMSO) controls (Z-score (SD units of positive control)); higher = more complex signal
# Conditions: screen stage: primary screen; compound concentration: 25 nM
row,Compound,AlphaScreen HuR-RNA complex signal Z-score
1,O=c1c(-c2ccc(O)cc2)coc2cc(O)ccc12,2.59
2,COc1c(C)c2c(c(O)c1C/C=C(\C)CCC(=O)O)C(=O)OC2,-0.42
3,O=C(O)c1ccc(S(=O)(=O)N(Cl)Cl)cc1,-0.734
4,O=C(Oc1ccccc1C(=O)O)c1ccccc1O,-6.08
5,CCN1CCCC(OC(=O)C(c2ccccc2)c2ccccc2)C1 (centres undefined),0.0725
6,Nc1ccc(C(=O)O)cc1,0.392
7,CC(C)c1ccc2c(c1)CC[C@H]1[C@](C)(CN)CCC[C@]21C,0.674
8,CN(C)CCCSC(=N)N,1.97
9,NCCNCCNCCN,1.65
10,O=C(CCc1ccc(O)cc1)c1c(O)cc(O)cc1O[C@@H]1OC(CO)[C@@H](O)[C@@H](O)C1O (some centres undefined),0.975
11,CCCC1O[C@@H]2C[C@H]3[C@@H]4CCC5=CC(=O)C=C[C@]5(C)[C@H]4[C@@H](O)C[C@]3(C)[C@]2(C(=O)CO)O1 (some centres undefined),-0.582
12,CC(C)c1c(O)ccc2c1CC[C@H]1C(C)(C)CCC[C@]21C,-0.671
13,CC(C(=O)O)c1cccc(C(=O)c2ccccc2)c1 (centres undefined),1.62
14,CCOC(=O)c1ncn2c1CN(C)C(=O)c1cc(F)ccc1-2,1.96
15,O=NN(CCCl)C(=O)NCCCl,2.77
16,CC1(C)CC23C(=O)CCC(O)C2(C)CCC13 (centres undefined),1.23
17,CCC(C(N)=O)c1ccccc1 (centres undefined),2.05
18,CCOc1cc(CC(=O)N[C@@H](CC(C)C)c2ccccc2N2CCCCC2)ccc1C(=O)O,2.38
19,COc1cc2c(cc1OC)C1(O)C(=O)c3ccc(O)c(C(=O)O)c3OC1CO2 (centres undefined),-4.87
20,C#C[C@]1(O)CC[C@H]2[C@@H]3CCc4cc(O)ccc4[C@H]3CC[C@@]21C,-1.3
21,CC(C)=CC1C(CO)C1(C)C (centres undefined),1.69
22,Cc1occc(=O)c1O,1.31

row,Compound,AlphaScreen HuR-RNA complex signal Z-score
1,NCCSSCCN,2.67
2,CC1(C)C(=O)[C@H]2C[C@]3(O)C4=CC(=O)O[C@@H](c5ccoc5)[C@@]4(C)CCC3[C@](C)(C2=O)[C@H]1CC(=O)O (some centres undefined),0.483
3,CCCCCN(CCCCC)C(=O)C(CCC(=O)O)NC(=O)c1ccc(Cl)c(Cl)c1 (centres undefined),1.89
4,O=c1cc(-c2ccccc2O)oc2cc(O)ccc12,-0.106
5,CC(C)NCC(O)c1ccc(O)c(O)c1 (centres undefined),-3.23
6,C#CCCCCCCCCCCCC(O)CC(O)COC(C)=O (centres undefined),2.61
7,CC(=O)OCC(=O)[C@@]1(O)[C@H](C)C[C@H]2[C@@H]3CCC4=CC(=O)C=C[C@]4(C)[C@@]3(F)[C@@H](O)C[C@@]21C,1.67
8,COc1ncnc(NS(=O)(=O)c2ccc(N)cc2)c1OC,1.83
9,CC1(C)C(=O)C=CC2(C)C1C=CC1(C)C2CCC2(C)C(c3ccoc3)OC(=O)C3OC312 (centres undefined),1.69
10,COc1c(N2C[C@@H]3CCCN[C@@H]3C2)c(F)cc2c(=O)c(C(=O)O)cn(C3CC3)c12,1.77
11,COc1ccc(C(=O)c2ccccc2)c(O)c1,6.29
12,COc1ccc(C=CC(=O)O)cc1OC,1.45
13,CC1(C)O[C@@H]2C[C@H]3[C@@H]4CCC5=CC(=O)C=C[C@]5(C)[C@H]4[C@@H](O)C[C@]3(C)[C@]2(C(=O)CO)O1,1.36
14,O=C(O)Cc1cc(I)c(Oc2cc(I)c(O)c(I)c2)c(I)c1,2.7
15,CCN(CC)CCOc1ccc2c(c1)C(=O)c1cc(OCCN(CC)CC)ccc1-2,2.04
16,CC[C@H]1OC(=O)C[C@@H](O)[C@H](C)[C@@H](O[C@@H]2O[C@H](C)[C@@H](O[C@H]3C[C@@](C)(O)[C@@H](O)[C@H](C)O3)[C@H](N(C)C)[C@H]2O)[C@@H](CC=O)C[C@@H](C)C(=O)/C=C/C(C)=C/[C@@H]1CO[C@@H]1O[C@H](C)[C@@H](O)[C@@H](OC)[C@H]1OC,-0.752
17,COc1ccc2c(=O)c(-c3ccc(O)cc3)coc2c1,1.4
18,CNS(=O)(=O)c1ccc(NC(=O)c2ccccc2C(=O)O)cc1,2.21
19,COC(=O)CC1C(C)(C)C(OC(C)=O)[C@@H]2[C@@H](OC(C)=O)[C@]34O[C@@]2(O)[C@]1(C)C3CC[C@]1(C)C4=CC(=O)O[C@H]1c1ccoc1 (some centres undefined),1.6
20,Nc1c2c(nc3ccccc13)CCCC2,5.03
21,O=c1cc(-c2ccccc2)oc2cc(O)cc(O)c12,-0.0595
22,CCN(CC)C(=S)SSC(=S)N(CC)CC,-1.93

# Quoted at random: 3 records from the list
row,Compound,AlphaScreen HuR-RNA complex signal Z-score
4,O=C(Oc1ccccc1C(=O)O)c1ccccc1O,-6.08
16,CC1(C)CC23C(=O)CCC(O)C2(C)CCC13 (centres undefined),1.23
5,CCN1CCCC(OC(=O)C(c2ccccc2)c2ccccc2)C1 (centres undefined),0.0725

# Further results:

row,Compound,AlphaScreen HuR-RNA complex signal Z-score
1,C=C[C@@]1(C)CC(=O)[C@]2(O)[C@@]3(C)[C@@H](O)CCC(C)(C)[C@@H]3[C@H](O)[C@H](OC(C)=O)[C@@]2(C)O1,0.0936
2,CN(Cc1cnc2nc(N)nc(N)c2n1)c1ccc(C(=O)NC(CCC(=O)O)C(=O)O)cc1 (racemic),4.19
3,C[C@H](N)[C@H](O)c1cccc(O)c1,-2.57
4,CCN(CC)CCOC(=O)C(Cc1cccc2ccccc12)CC1CCCO1 (centres undefined),0.376
5,CC1(C)S[C@@H]2[C@H](NC(=O)C(C(=O)O)c3ccccc3)C(=O)N2[C@H]1C(=O)O (some centres undefined),0.314
6,CC(C)=CCC/C(C)=C/CC/C(C)=C/CO,0.435
7,Cc1c(C(=O)O)c(O)cc2c1C(=O)c1c(O)c([C@@H]3O[C@H](CO)[C@@H](O)[C@H](O)[C@H]3O)c(O)c(O)c1C2=O,0.717
8,Cc1ccccc1OCC(O)CO (centres undefined),1.01
9,c1ccc2c(c1)CN1CCCC1=N2,0.835
10,O=C1CN(/N=C/c2ccc([N+](=O)[O-])o2)C(=O)N1,7.99
11,CC1(C)S[C@@H]2[C@H](NC(=O)[C@H](C(=O)O)c3ccsc3)C(=O)N2[C@H]1C(=O)O,2.14
12,CN[C@@H]1[C@@H](O)[C@@H](O[C@@H]2[C@@H](O)[C@H](O[C@H]3OC(CN)=CC[C@H]3N)[C@@H](N)C[C@H]2N)OC[C@]1(C)O,31.7
13,Cc1cc(NS(=O)(=O)c2ccc(N)cc2)no1,8.74
14,C=C[C@@H](C1=CC(=O)C(OC)=C(OC)C1=O)c1ccccc1,3.48
15,O=C1CN(/N=C/c2ccc(-c3ccc([N+](=O)[O-])cc3)o2)C(=O)N1,0.85
16,COc1cc(O)c2c(c1)C(=O)c1cc(C)cc(O)c1C2=O,0.89
17,CCOC(=O)n1ccn(C)c1=S,4.12
18,C[n+]1cccc(C(=O)[O-])c1,2.57
19,NS(=O)(=O)c1cc2c(cc1Cl)NCNS2(=O)=O,-5.92
20,CC(=O)O[C@H]1CC[C@]2(C)[C@H]3CC=C4[C@@H]5CC(C)(C)CC[C@]5(C)CC[C@@]4(C)[C@]3(C)CC[C@H]2C1(C)C [beta-AMYRIN ACETATE],2.99
